Data published in US11064697B2 (priority 2015, dated 2021).
Some results were stated once for a whole list of compounds, not compound by compound.

Experiments:
Pyricularia oryzae = format: cell-based; conditions: 31 ppm active substance; MTP measured at 405 nm 7 days after inoculation, 18° C.
Botrytis cinerea [1] = assay: Green house: long lasting control of Botrytis cinerea on leaves of green pepper; format: in vivo; conditions: 250 ppm active substance; green pepper sprayed, inoculated after 7 days, assessed after 5 days at 22 to 24° C.; untreated plants 80% infected
Botrytis cinerea [2] = assay: Microtest: activity against the grey mold Botrytis cinerea in the microtiterplate test; format: cell-based; conditions: 31 ppm active substance; MTP measured at 405 nm 7 days after inoculation, 18° C.
Septoria tritici = assay: Microtest: activity against leaf blotch on wheat caused by Septoria tritici; format: cell-based; conditions: 31 ppm active substance; MTP measured at 405 nm 7 days after inoculation, 18° C.

Compound | growth of the pathogen (relative growth in %) (Pyricularia oryzae) | growth of the pathogen (extent of fungal attack on the leaves, visually assessed as % diseased leaf area) (Botrytis cinerea [1]) | growth of the pathogen (relative growth in %) (Botrytis cinerea [2]) | growth of the pathogen (relative growth in %) (Septoria tritici)
CC1(C)N=C(c2cnc(Br)c(Br)c2)c2ccccc2C1(Br)Br [D-13] | at most 22% |  |  | 
Cc1ncc(C2=NC(C)(C)C(F)(F)c3ccccc32)cc1C(F)F [D-63] |  | at most 15% | at most 19% | 
Cc1cc(C#N)c(C2=NC(C)(C)C(F)(F)c3ccccc32)cn1 [D-93] | at most 22% |  |  | at most 18%
CCc1cc(C2=NC(C)(C)C(F)(F)c3ccccc32)cnc1C [D-27] | at most 22% |  | at most 19% | 
Cc1ncc(C2=NC(C)(C)C(F)(F)c3ccccc32)cc1F [D-60] |  |  | at most 19% | 
COc1ncc(C2=NC(C)(C)C(F)(F)c3ccccc32)cc1Br [D-19] | at most 22% |  |  | at most 18%
Cc1cc(C2=NC(C)(C)C(F)(F)c3ccccc32)c(C#N)nc1C [D-82] |  |  | at most 19% | 
CC1(C)N=C(c2cnc(F)c(F)c2)c2ccccc2C1(F)F [D-88] | at most 22% |  |  | at most 18%
CC(F)c1cc(C2=NC(C)(C)C(F)(F)c3ccccc32)cnc1Br [D-84] |  |  | at most 19% | 
COc1cc(C2=NC(C)(C)C(F)(F)c3ccccc32)cnc1OC [D-5] | at most 22% |  |  | 
Cc1ncc(C2=NC(C)(C)C(F)(F)c3ccccc32)cc1C#N [D-26] |  | at most 15% | at most 19% | 
CSc1ncc(C2=NC(C)(C)C(F)(F)c3ccccc32)cc1C(F)(F)F [D-32] | at most 22% |  |  | 
Cc1cc(C2=NC(C)(C)C(F)(F)c3ccccc32)cnc1C(F)(F)F [D-47] | at most 22% | at most 15% | at most 19% | 
Cc1cc(C2=NC(C)(C)C(F)(F)c3ccccc32)cnc1C(N)=O [D-33] | at most 22% |  |  | 
Cc1ncc(C2=NC(C)(C)C(F)(F)c3ccccc32)cc1C(C)F [D-81] |  |  | at most 19% | 
COc1cc(C2=NC(C)(C)C(F)(F)c3ccccc32)cnc1Br [D-79] | at most 22% | at most 15% | at most 19% | 
CC1(C)N=C(c2cnc(C3CC3)c(Br)c2)c2ccccc2C1(F)F [D-77] | at most 22% |  |  | 
Cc1ncc(C2=NC(C)(C)C(F)(F)c3ccccc32)cc1OC(F)F [D-72] | at most 22% |  |  | 
Cc1cc(C2=NC(C)(C)C(F)(F)c3ccccc32)cnc1CF [D-73] | at most 22% |  | at most 19% | at most 18%
COc1ncc(C2=NC(C)(C)C(F)(F)c3ccccc32)cc1C(F)(F)F [D-29] | at most 22% |  |  | 

Compound | growth of the pathogen (relative growth in %) (Pyricularia oryzae) | growth of the pathogen (extent of fungal attack on the leaves, visually assessed as % diseased leaf area) (Botrytis cinerea [1]) | growth of the pathogen (relative growth in %) (Botrytis cinerea [2]) | growth of the pathogen (relative growth in %) (Septoria tritici)
CC1(C)N=C(c2cnc(C(F)(F)F)c(C(F)(F)F)c2)c2ccccc2C1(F)F [D-38] | at most 22% |  |  | 
CC1(C)N=C(c2cnc(Cl)c(C(F)(F)F)c2)c2ccccc2C1(F)F [D-23] | at most 22% |  |  | 
CC1(C)N=C(c2cnc(C#N)c(C(F)(F)F)c2)c2ccccc2C1(F)F [D-39] | at most 22% |  |  | 
Cc1ncc(C2=NC(C)(C)C(F)(F)c3ccccc32)c(C#N)c1C [D-91] | at most 22% |  |  | at most 18%
Cc1cc(C2=NC(C)(C)C(F)(F)c3ccccc32)cnc1C [D-11] | at most 22% | at most 15% | at most 19% | 
CC1(C)N=C(c2cccnc2Cl)c2ccccc2C1(F)F [D-2] | at most 22% |  |  | 
Cc1cc(C2=NC(C)(C)C(F)(F)c3ccccc32)cnc1C1CC1 [D-56] | at most 22% | at most 15% | at most 19% | 
CNC(=O)c1ncc(C2=NC(C)(C)C(F)(F)c3ccccc32)cc1C(F)(F)F [D-44] | at most 22% |  |  | 
Cc1cc(C2=NC(C)(C)C(F)(F)c3ccccc32)cnc1C#N [D-18] | at most 22% | at most 15% | at most 19% | 
CC1(C)N=C(c2cnc(Cl)c(Cl)c2)c2ccccc2C1(F)F [D-1] | at most 22% |  |  | 
Cc1cc(C2=NC(C)(C)C(F)(F)c3ccccc32)cnc1Cl [D-59] |  | at most 15% | at most 19% | 
CC1(C)N=C(c2cnc(Br)c(Cl)c2)c2ccccc2C1(F)F [D-78] | at most 22% |  |  | 
CC1(C)N=C(c2cnc(C#N)c(C#N)c2)c2ccccc2C1(F)F [D-65] | at most 22% |  |  | 
CCc1cc(C2=NC(C)(C)C(F)(F)c3ccccc32)cnc1C(F)F [D-69] |  |  | at most 19% | 
Cc1cc(C2=NC(C)(C)C(F)(F)c3ccccc32)cnc1Br [D-15] | at most 22% | at most 15% | at most 19% | 
Cc1ncc(C2=NC(C)(C)C(F)(F)c3ccccc32)cc1[S+](C)[O-] [D-64] | at most 22% |  |  | 
CC1(C)N=C(c2cnc(Br)c(C(F)(F)F)c2)c2ccccc2C1(F)F [D-22] | at most 22% |  |  | 
Cc1cc(C2=NC(C)(C)C(F)(F)c3ccccc32)c(C)nc1C [D-28] | at most 22% |  |  | 
CC1(C)N=C(c2cncc(Br)c2)c2ccccc2C1(F)F [D-8] | at most 22% |  | at most 19% | 
CC1(C)N=C(c2c(Cl)ccnc2Cl)c2ccccc2C1(F)F [D-3] | at most 22% |  |  | 

Compound | growth of the pathogen (relative growth in %) (Pyricularia oryzae) | growth of the pathogen (extent of fungal attack on the leaves, visually assessed as % diseased leaf area) (Botrytis cinerea [1]) | growth of the pathogen (relative growth in %) (Botrytis cinerea [2]) | growth of the pathogen (relative growth in %) (Septoria tritici)
Cc1cc(C2=NC(C)(C)C(F)(F)c3ccccc32)cnc1C(Cl)Cl [D-74] | at most 22% |  | at most 19% | 
Cc1ncc(C2=NC(C)(C)C(F)(F)c3ccccc32)cc1CF [D-83] |  | at most 15% | at most 19% | 
COc1cc(C2=NC(C)(C)C(F)(F)c3ccccc32)cnc1C [D-54] | at most 22% | at most 15% | at most 19% | 
COc1cc(C2=NC(C)(C)C(F)(F)c3ccccc32)cnc1C(F)F [D-70] |  |  | at most 19% | 
CC1(C)N=C(c2ccc(CF)nc2)c2ccccc2C1(F)F [D-52] | at most 22% | at most 15% | at most 19% | 
Cc1ncc(C2=NC(C)(C)C(F)(F)c3ccccc32)cc1C1CC1 [D-76] | at most 22% |  | at most 19% | 
CC1(C)N=C(c2ccc(Cl)nc2)c2ccccc2C1(F)F [D-9] | at most 22% |  |  | 
CC1(C)N=C(c2cnc(C(F)F)c(CF)c2)c2ccccc2C1(F)F [D-96] |  |  | at most 19% | 
Cc1cc(C2=NC(C)(C)C(F)(F)c3ccccc32)cnc1C(C)F [D-80] | at most 22% |  | at most 19% | 
CC(F)c1ncc(C2=NC(C)(C)C(F)(F)c3ccccc32)cc1C(F)(F)F [D-43] | at most 22% |  |  | 
C#Cc1cc(C2=NC(C)(C)C(F)(F)c3ccccc32)cnc1C(F)F [D-85] |  |  | at most 19% | 
CC1(C)N=C(c2cnc(C(F)F)c(C(F)(F)F)c2)c2ccccc2C1(F)F [D-50] | at most 22% |  |  | 
CC1(C)N=C(c2cncc(C(F)(F)F)c2)c2ccccc2C1(F)F [D-31] | at most 22% |  |  | 
CNC(=O)c1ncc(C2=NC(C)(C)C(F)(F)c3ccccc32)cc1C [D-34] | at most 22% |  |  | 
CC1(C)N=C(c2cnc(CC#N)c(Br)c2)c2ccccc2C1(F)F [D-62] | at most 22% | at most 15% | at most 19% | 
Cc1ncc(C2=NC(C)(C)C(F)(F)c3ccccc32)cc1S(C)(=O)=O [D-66] | at most 22% |  |  | 
C=Cc1cc(C2=NC(C)(C)C(F)(F)c3ccccc32)cnc1C [D-75] | at most 22% |  | at most 19% | 
CC1(C)N=C(c2cnc(C(F)F)c(Br)c2)c2ccccc2C1(F)F [D-48] | at most 22% | at most 15% | at most 19% | 
CCCCc1ncc(C2=NC(C)(C)C(F)(F)c3ccccc32)cc1C [D-46] | at most 22% |  |  | 
CCc1ncc(C2=NC(C)(C)C(F)(F)c3ccccc32)cc1C [D-67] | at most 22% | at most 15% | at most 19% | 
